The results in this text go back to publication PMC4324299, “Characterization of interactions between inclusion membrane proteins from Chlamydia trachomatis” (Frontiers in Cellular and Infection Microbiology, 2015).

These are yes or no findings as the source states them, for the method shown. For some assays here: A result given as binding can be weak or reduced; the word gives no strength.

Holding throughout (test): two-hybrid; BACTH screen among a subset of 20 Inc proteins in E. coli DHT1: a pST25-inc bait with a pool of the pUT18C-inc plasmids, blue colonies sequenced; and pairwise co-transformations with β-galactosidase of eight colonies; interaction = activity at least 5 times the negative control
The target in assay [1] is T1, IncE (Ct116) (Chlamydia trachomatis (serovar D/UW-3/CX or L2)) (UniProt P0DJI4).
T1 sequence: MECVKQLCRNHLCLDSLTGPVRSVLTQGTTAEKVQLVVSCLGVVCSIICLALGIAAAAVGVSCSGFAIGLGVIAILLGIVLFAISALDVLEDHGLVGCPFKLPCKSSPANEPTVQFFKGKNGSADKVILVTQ

The target in assay [2] is T2, IncF (Ct117) (Chlamydia trachomatis (serovar D/UW-3/CX or L2)) (UniProt P0DJI5).
T2 sequence: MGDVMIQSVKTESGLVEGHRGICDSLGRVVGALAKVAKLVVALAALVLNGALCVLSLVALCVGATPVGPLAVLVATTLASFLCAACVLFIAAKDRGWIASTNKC

The target in assay [3] is T3, Ct005 (Chlamydia trachomatis (serovar D/UW-3/CX or L2)) (UniProt O84008).
T3 sequence: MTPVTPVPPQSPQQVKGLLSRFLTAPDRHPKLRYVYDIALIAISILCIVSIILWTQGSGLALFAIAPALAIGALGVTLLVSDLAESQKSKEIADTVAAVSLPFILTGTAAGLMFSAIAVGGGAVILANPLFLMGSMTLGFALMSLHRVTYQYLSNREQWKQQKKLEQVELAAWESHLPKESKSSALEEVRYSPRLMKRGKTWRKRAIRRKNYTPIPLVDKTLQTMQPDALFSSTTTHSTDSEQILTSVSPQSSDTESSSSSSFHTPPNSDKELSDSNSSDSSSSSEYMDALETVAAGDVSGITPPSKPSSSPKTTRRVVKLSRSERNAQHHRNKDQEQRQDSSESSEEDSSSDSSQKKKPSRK

Assay [4] addresses Ct222 (Chlamydia trachomatis (serovar D/UW-3/CX or L2)) (UniProt O84225).
For assay [5], the target named is Ct229 (Chlamydia trachomatis (serovar D/UW-3/CX or L2)) (UniProt O84232).
Assay [6] addresses T4, IncD (Ct115) (Chlamydia trachomatis (serovar D/UW-3/CX or L2)) (UniProt P0DJI3).
T4 sequence: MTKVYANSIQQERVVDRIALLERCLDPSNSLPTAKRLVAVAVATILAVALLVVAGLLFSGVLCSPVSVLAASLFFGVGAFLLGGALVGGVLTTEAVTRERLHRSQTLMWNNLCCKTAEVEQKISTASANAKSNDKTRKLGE

Assay [7] addresses Ct850 (Chlamydia trachomatis (serovar D/UW-3/CX or L2)) (UniProt O84858).
The target in assay [8] is Ct134 (Chlamydia trachomatis (serovar D/UW-3/CX or L2)).
Assay [9] addresses IncA (Ct119) (Chlamydia trachomatis serovar L2).
For assay [10], the target named is Ct101 (Chlamydia trachomatis (serovar D/UW-3/CX or L2)).
The target of assay [11] is Ct227 (Chlamydia trachomatis (serovar D/UW-3/CX or L2)).
The target of assay [12] is IncB (Ct232) (Chlamydia trachomatis (serovar D/UW-3/CX or L2)).
Assay [13] addresses Ct135 (Chlamydia trachomatis (serovar D/UW-3/CX or L2)).
In assay [14] the target is Ct249 (Chlamydia trachomatis (serovar D/UW-3/CX or L2)) (UniProt O84251).
The target in assay [15] is Ct058 (Chlamydia trachomatis (serovar D/UW-3/CX or L2)).

Turning to Ct227, in assay [1], the binding result was “no binding”.
On to Ct249 (from UniProt O84251), for which the binding entry in [2] is reported as “binds”; in [1], “no binding”.
As to Ct225 (from UniProt O84228), in assay [1], the binding result was “no binding”.
Regarding Ct101, in assay [1], the binding entry is “no binding”.
As for IncA (Ct119) (from UniProt A0A0H3MD02), the binding result is listed as “binds” in assay [3], “binds” in assay [2] and “no binding” in [1].
Consider Ct223 (from UniProt O84226), for which the results for the binding entry in assay [4], in [1] and in [5] were “binds”, “no binding” and “binds”, respectively.
For IncC (Ct233), the binding entry was “binds” in [2] and “no binding” in assay [1].
Regarding Ct058, the binding result in assay [6] was “binds”; in assay [2], “binds”; in assay [1], “no binding”.
As to Ct222 (from UniProt O84225), the binding result is listed as “binds” in [6], “binds” in assay [7], “no binding” in [1] and “binds” in assay [5].
For the molecule Ct224 (from UniProt O84227), in [4], the binding result is given as “binds”.
Ct850 (from UniProt O84858): the binding result in [2] is “binds”; in assay [4], “binds”; in [1], “no binding”.
Turning to Ct135, the binding result in assay [1] is “no binding”.
With Ct813 (from UniProt O84819), in assay [1], the binding result is “no binding”.
For the molecule Ct229 (from UniProt O84232), the binding entry in assay [1] is recorded as “no binding”.
Consider IncB (Ct232), for which the binding result in assay [1] is recorded as “no binding”.
Consider Ct134, for which, in assay [1], the binding result is reported as “no binding”.

B1: IncF (Ct117) (protein, UniProt P0DJI5 1-104)
chain: MGDVMIQSVKTESGLVEGHRGICDSLGRVVGALAKVAKLVVALAALVLNGALCVLSLVALCVGATPVGPLAVLVATTLASFLCAACVLFIAAKDRGWIASTNKC
As to B1, the binding entry in [8] is reported as “no binding”; in assay [7], “binds”; in [9], “binds”; in assay [10] it was “no binding”; in assay [11] it was “no binding”; in assay [12], “no binding”. In addition, the binding result is listed as “no binding” in assay [13] and “binds” in assay [14].

B2: IncG (Ct118) (protein, UniProt P0DPS6 1-167)
chain: MICCDKVLSSVQSMPVIDKCSVTKCLQTAKQAAVLALSLFAVFASGSLSILSAAVLFSGTAAVLPYLLILTTALLGFVCAVIVLLRNLSAVVQSCKKRSPEEIEGAARPSDQQESGGRLSEESASPQASPTSSTFGLESALRSIGDSVSGAFDDINKDNSRSRSHSF
In the case of B2, the binding entry in assay [8], in assay [10], in assay [11], in assay [12] and in [13] was “no binding” each time.

B3: Ct005 (protein, UniProt O84008 1-363)
chain: MTPVTPVPPQSPQQVKGLLSRFLTAPDRHPKLRYVYDIALIAISILCIVSIILWTQGSGLALFAIAPALAIGALGVTLLVSDLAESQKSKEIADTVAAVSLPFILTGTAAGLMFSAIAVGGGAVILANPLFLMGSMTLGFALMSLHRVTYQYLSNREQWKQQKKLEQVELAAWESHLPKESKSSALEEVRYSPRLMKRGKTWRKRAIRRKNYTPIPLVDKTLQTMQPDALFSSTTTHSTDSEQILTSVSPQSSDTESSSSSSFHTPPNSDKELSDSNSSDSSSSSEYMDALETVAAGDVSGITPPSKPSSSPKTTRRVVKLSRSERNAQHHRNKDQEQRQDSSESSEEDSSSDSSQKKKPSRK
For the molecule B3, the binding entry in assay [8] is recorded as “no binding”; in [9] it was “binds”; in assay [10], “no binding”; in assay [11], “no binding”; in assay [12] it was “no binding”; in [13], “no binding”.

B4: IncE (Ct116) (protein, UniProt P0DJI4 1-132)
chain: MECVKQLCRNHLCLDSLTGPVRSVLTQGTTAEKVQLVVSCLGVVCSIICLALGIAAAAVGVSCSGFAIGLGVIAILLGIVLFAISALDVLEDHGLVGCPFKLPCKSSPANEPTVQFFKGKNGSADKVILVTQ
On to B4, for which the binding result in assay [8], in assay [10], in [11], in assay [12] and in [13] was “no binding” each time.

B5: IncD (Ct115) (protein, UniProt P0DJI3 1-141)
chain: MTKVYANSIQQERVVDRIALLERCLDPSNSLPTAKRLVAVAVATILAVALLVVAGLLFSGVLCSPVSVLAASLFFGVGAFLLGGALVGGVLTTEAVTRERLHRSQTLMWNNLCCKTAEVEQKISTASANAKSNDKTRKLGE
B5: the binding result in [8] is “no binding”; in assay [4], “binds”; in [9] it was “binds”; in assay [10], “no binding”; in assay [11] it was “no binding”; in assay [12], “no binding”. The binding result in [13] is “no binding”; in assay [5], “binds”; in assay [15] it was “binds”.
